Results published in patent US20120058120A1, “Targets for Growth Factor Signalling and Methods of Therapy” (priority 2009, published 2012).

The chains behind the UniProt entries cited, without tags or fusion partners. Where a name states a change or a piece, a line headed by the entry shows the natural chain unless it says otherwise. Residues count along the entry.
UniProt P05019, residues 49-118: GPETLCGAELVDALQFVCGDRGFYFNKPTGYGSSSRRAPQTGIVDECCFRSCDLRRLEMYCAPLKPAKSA
UniProt P08069, residues 31-935: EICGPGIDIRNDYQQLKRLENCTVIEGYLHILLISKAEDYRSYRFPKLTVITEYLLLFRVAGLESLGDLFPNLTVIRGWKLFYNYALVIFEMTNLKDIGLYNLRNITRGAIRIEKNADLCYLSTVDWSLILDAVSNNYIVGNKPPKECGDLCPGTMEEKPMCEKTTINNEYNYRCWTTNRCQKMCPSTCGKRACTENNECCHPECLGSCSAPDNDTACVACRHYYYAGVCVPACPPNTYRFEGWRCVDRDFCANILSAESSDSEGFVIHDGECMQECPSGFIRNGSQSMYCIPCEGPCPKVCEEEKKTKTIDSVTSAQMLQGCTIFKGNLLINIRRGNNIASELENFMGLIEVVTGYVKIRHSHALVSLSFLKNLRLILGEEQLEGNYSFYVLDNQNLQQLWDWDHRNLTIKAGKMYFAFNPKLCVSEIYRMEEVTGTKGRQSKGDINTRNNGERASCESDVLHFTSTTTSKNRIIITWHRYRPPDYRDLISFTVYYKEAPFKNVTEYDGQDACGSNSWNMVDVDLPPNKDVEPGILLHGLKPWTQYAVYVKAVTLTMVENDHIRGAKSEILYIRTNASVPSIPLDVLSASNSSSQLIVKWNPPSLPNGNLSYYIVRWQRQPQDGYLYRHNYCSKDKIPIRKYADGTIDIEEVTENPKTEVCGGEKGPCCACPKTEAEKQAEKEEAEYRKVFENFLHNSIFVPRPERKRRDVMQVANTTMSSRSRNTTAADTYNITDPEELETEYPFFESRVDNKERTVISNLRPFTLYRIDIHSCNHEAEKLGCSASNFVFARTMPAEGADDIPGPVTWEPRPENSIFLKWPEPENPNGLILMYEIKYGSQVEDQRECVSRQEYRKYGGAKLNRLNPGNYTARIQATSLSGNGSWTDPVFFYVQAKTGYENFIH
UniProt P21980: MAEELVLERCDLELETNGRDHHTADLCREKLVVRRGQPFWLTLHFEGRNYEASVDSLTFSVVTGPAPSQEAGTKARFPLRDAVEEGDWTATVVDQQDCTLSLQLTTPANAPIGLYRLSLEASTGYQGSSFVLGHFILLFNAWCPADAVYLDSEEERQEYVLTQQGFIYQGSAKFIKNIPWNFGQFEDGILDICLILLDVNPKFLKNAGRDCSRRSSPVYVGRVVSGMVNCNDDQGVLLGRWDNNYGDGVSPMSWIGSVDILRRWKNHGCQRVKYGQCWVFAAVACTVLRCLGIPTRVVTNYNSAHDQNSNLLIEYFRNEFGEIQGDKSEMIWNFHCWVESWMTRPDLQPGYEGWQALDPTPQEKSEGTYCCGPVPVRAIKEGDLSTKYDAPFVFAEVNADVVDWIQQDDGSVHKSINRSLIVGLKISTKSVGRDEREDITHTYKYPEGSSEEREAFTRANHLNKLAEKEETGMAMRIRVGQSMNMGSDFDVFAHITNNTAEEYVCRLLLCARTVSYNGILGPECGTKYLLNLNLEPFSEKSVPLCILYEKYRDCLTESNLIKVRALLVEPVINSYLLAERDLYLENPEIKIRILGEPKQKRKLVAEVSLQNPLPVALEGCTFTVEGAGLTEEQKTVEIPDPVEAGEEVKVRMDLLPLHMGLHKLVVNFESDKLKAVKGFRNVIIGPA

Tests used:
[1] = molecular target: insulin-like growth factor I (IGF-I) (UniProt P05019); test: IGF-I reacted with TG2, SDS-PAGE and Western blot for IGF-I
[2] = molecular target: insulin-like growth factor I (IGF-I) (UniProt P05019); test: TG2 crosslinking reaction (1 h, 1 mM CaCl2, pH 7.5), reducing SDS-PAGE, Western blot for IGF-I
[3] = molecular target: recombinant extracellular domain of IGF1R (UniProt P08069); test: as above

Measured: binding

transglutaminase 2 (TG2, tissue transglutaminase) (from UniProt P21980) (enzyme)
binds: all assays above

These are yes or no findings as the source states them, for the method shown. Binding calls can cover weak binding; strength is not graded here.
